{
  "sequences": {"note": "Protein sequences, listed by entry. Tags and fused reporters are not part of them. Residues count along the entry.", "UniProt P03454, residues 18-565": "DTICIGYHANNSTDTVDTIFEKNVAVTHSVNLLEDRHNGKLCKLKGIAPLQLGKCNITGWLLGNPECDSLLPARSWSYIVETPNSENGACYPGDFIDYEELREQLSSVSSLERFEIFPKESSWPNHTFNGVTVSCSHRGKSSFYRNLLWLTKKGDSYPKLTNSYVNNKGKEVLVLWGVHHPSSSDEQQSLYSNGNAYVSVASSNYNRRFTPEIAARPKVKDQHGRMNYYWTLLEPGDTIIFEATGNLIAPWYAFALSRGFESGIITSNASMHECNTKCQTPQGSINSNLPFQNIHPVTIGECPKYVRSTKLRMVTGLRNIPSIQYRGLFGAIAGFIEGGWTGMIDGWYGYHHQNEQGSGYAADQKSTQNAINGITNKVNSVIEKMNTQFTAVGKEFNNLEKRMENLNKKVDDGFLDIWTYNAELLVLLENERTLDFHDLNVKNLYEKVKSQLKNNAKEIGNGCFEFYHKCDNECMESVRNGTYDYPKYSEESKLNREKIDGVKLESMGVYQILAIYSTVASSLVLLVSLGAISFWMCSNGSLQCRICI"},
  "source": "patent US20110076265A1",
  "binders": {"B1": {"name": "IgG antibodies produced by the EBV-transformed human B cell clone cINF49 (antibody, V domains shown)", "VH": "LESGGGLVQPGGSLRLSCAASGITFSSYAMSWVRQAPGKGLEWVSTVNSGGGSTYYGDSVRGRFTISRDNSKSTLYLQLNSLRAEDTAIYYCAKDKGRPIFGLVTPSYYMDVWGNGT", "VL": "ELTQSPSSLSASVGDSVTITCRTSERISTYLNWYQQKPGKAPRLLVSGASTLQGGVPSRFSGSGSGTAFTLTINSLQPEDFATYYCQQSYSTPLTFGGGT"}},
  "molecular_target": "H1-subtype hemagglutinin of influenza A virus A/Wilson-Smith/33 (influenza A virus A/Wilson-Smith/33 (H1N1)) (UniProt P03454)",
  "note": "No constants are given. Whether binding was seen depends on the method and setting. Some results given as binding are weak or reduced against the parent protein; the word gives no strength.",
  "data": [
    {"binder": "B1", "values": [
      {"measurement": "binding", "value": "binds"}
    ]}
  ]
}
